Literature values, collected in patent US6696084B2 (RTP Pharma Inc., priority 2000, dated 2004).

Settings: oral administration with or without food

For `CC(C)c1c(C(=O)Nc2ccccc2)c(-c2ccccc2)c(-c2ccc(F)cc2)n1CC[C@@H](O)C[C@@H](O)CC(=O)O` [Atorvastatin], the “food effect on absorption / uptake” value is given as “Food decreases the rate and extent of drug absorption”.
